# Measurements reported in PubChem BioAssay AID2685 (National Center for Advancing Translational Sciences (NCATS), 2010).
# This is one part of the list. Further columns of the screen follow, without active or inactive calls. Compounds called inactive in the main read-out are mostly missing here. Words in brackets tell the shape of the fitted curve; partial curves, single points and poor fits give uncertain potencies.
# Assay: qHTS Assay for Lipid Storage Modulators in Drosophila S3 Cells;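 on cell number change: cells counted by Cell Tracker Red CMTPX staining in the red channel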
# Conditions: BODIPY lipid droplet fluorescence, 18-24 h; for cell number change: measured here: cell count max response, cells fed with added oleic acid
# Method in brief: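 Laser-scanning cytometry quantifies lipid droplet accumulation (500–530 nm total intensity; droplet/cell object ratio) in oleic acid-fed (400 uM added) Drosophila S3 cells treated with a concentration series. 20 uM Triacsin C defined 100% inhibition.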
# [1] = measured here: lipid fluorescence (Fed channel) AC50, cells fed with added oleic acid
# [2] = measured here: cell number channel AC50, cells fed with added oleic acid
SMILES,cell number change,AC50 [1],AC50 [2]
COc1ccc(-n2c(C)cc(/C=C3\C(=O)NN(c4ccccc4)C3=O)c2C)cc1,13.2%,–,–
CC(C)(Oc1ccc(Cl)cc1)C(=O)NC1CCN(Cc2ccccc2)CC1,0.803%,–,–
COCCNC(=S)N(C)C1(c2ccccc2Cl)CCCCC1=O (stereo not given),19.5%,"5.17 µM [rising, partial curve]",–
CC(=O)N(Cc1ccccc1)c1ncc2c(n1)c(=O)c(C#N)c1ccccn12,49.5%,"0.184 µM [rising, full curve, poor fit]","0.731 µM [rising, partial curve]"
CCN(CC(=O)NCc1ccc(Cl)cc1)C(=O)CCc1ccccc1,20.8%,–,–
Cc1ccccc1OC1C(=O)N(CC2CCCO2)C1c1ccc2c(c1)OCO2 (stereo not given),17.8%,–,–
O=C(O)c1ccc(COc2ccccc2C=C2C(=O)c3ccccc3C2=O)cc1,6.51%,–,"5.8 µM [rising, single point]"
CSc1nsc(SCC(=O)Nc2ccc(C(=O)O)cc2)n1,19.4%,"0.13 µM [falling, full curve, poor fit]",–
C=CCOc1c(Br)cc(/C=C2\SC(=Nc3ccccc3)NC2=O)cc1OC,-56.6%,"0.517 µM [falling, single point]","16.4 µM [falling, partial curve, poor fit]"
Cc1cccc2cc(COC(=O)C3CCCO3)c(=O)[nH]c12 (stereo not given),1.4%,"0.731 µM [rising, full curve]",–
CC(C)Oc1c(Cl)cc(CNC(C)(C)CO)cc1Cl,-7.91%,"3.26 µM [falling, partial curve, poor fit]",–
O=CNCCc1nc2ccccc2n1CCc1ccccc1,17.6%,"0.651 µM [falling, single point]",–
O=C(O)c1ccccc1NC(=O)C1CCN(S(=O)(=O)c2cccc3nsnc23)CC1,2.69%,–,–
Cc1cc(C)c2cc3c(N)c(C(=O)N4CCc5ccccc5C4)sc3nc2c1,–,–,"0.259 µM [rising, partial curve, poor fit]"
O=C(CSc1n[nH]c(-c2ccccc2O)n1)NC1CCCCC1,-29.5%,"29.1 µM [falling, partial curve, poor fit]",–
COc1cc(Cl)c(CN2CCCC(CO)(Cc3cccc(Cl)c3)C2)cc1OC (stereo not given),-20.9%,"20.6 µM [falling, single point]",–
Cc1ccccc1CN1CCC(n2nccc2NC(=O)CCCc2ccccc2)CC1,20.3%,–,–
Cc1cc2c(N=NC(=O)C3CC3c3ccccc3)c(O)[nH]c2cc1Br (stereo not given),10.8%,"3.66 µM [rising, partial curve]",–
Cc1ccccc1NC(=O)CNc1ccccc1C(=O)NCc1ccco1,14.3%,–,–
COc1ccc(C(=O)Nc2ccc(C3(C#N)CCCC3)cc2)cc1,–,"5.17 µM [rising, single point]",–
Cc1nc(N)sc1C(=O)Nc1ccccc1,51.6%,"0.291 µM [rising, full curve, poor fit]","0.00461 µM [rising, full curve, poor fit]"
CCCC1C(c2ccccc2)C(C#N)(C#N)C2(C#N)CC1(N)NC2=O (stereo not given),12.3%,–,–

# Part of the list above in order of SMILES length, rising.
SMILES,cell number change,AC50 [1],AC50 [2]
O=CNCCc1nc2ccccc2n1CCc1ccccc1,17.6%,"0.651 µM [falling, single point]",–
CC(C)Oc1c(Cl)cc(CNC(C)(C)CO)cc1Cl,-7.91%,"3.26 µM [falling, partial curve, poor fit]",–
O=C(CSc1n[nH]c(-c2ccccc2O)n1)NC1CCCCC1,-29.5%,"29.1 µM [falling, partial curve, poor fit]",–
Cc1ccccc1NC(=O)CNc1ccccc1C(=O)NCc1ccco1,14.3%,–,–
COc1ccc(C(=O)Nc2ccc(C3(C#N)CCCC3)cc2)cc1,–,"5.17 µM [rising, single point]",–
Cc1ccccc1CN1CCC(n2nccc2NC(=O)CCCc2ccccc2)CC1,20.3%,–,–
Cc1cc2c(N=NC(=O)C3CC3c3ccccc3)c(O)[nH]c2cc1Br (stereo not given),10.8%,"3.66 µM [rising, partial curve]",–
COc1cc(Cl)c(CN2CCCC(CO)(Cc3cccc(Cl)c3)C2)cc1OC (stereo not given),-20.9%,"20.6 µM [falling, single point]",–
O=C(O)c1ccc(COc2ccccc2C=C2C(=O)c3ccccc3C2=O)cc1,6.51%,–,"5.8 µM [rising, single point]"
O=C(O)c1ccccc1NC(=O)C1CCN(S(=O)(=O)c2cccc3nsnc23)CC1,2.69%,–,–
COc1ccc(-n2c(C)cc(/C=C3\C(=O)NN(c4ccccc4)C3=O)c2C)cc1,13.2%,–,–

# Later entries:

SMILES,cell number change,AC50 [1],AC50 [2]
CCOC(=O)c1cc(-c2ccc(C)c([N+](=O)[O-])c2)nc2c1c(=O)n(C)c(=O)n2C,14.2%,–,–
O=[N+]([O-])c1ccc2ncnc(Nc3ccc4c(c3)OCCO4)c2c1,-6.62%,–,–
COc1ccccc1/C=C/C=N/NC(=O)CC1C(=O)NN=C1C (stereo not given),16.8%,"25.9 µM [rising, single point]",–
Cn1c(N)c(C(=O)COC(=O)c2ccc(Cl)nc2)c(=O)n(C)c1=O,6.91%,"4.61 µM [falling, single point]",–
CC(C)c1onc(C(=O)N2C(C)CCCC2C)c1[N+](=O)[O-] (stereo not given),-0.987%,–,–
CC(C)C[C@@H]1NC(=O)N(CCN2CCOCC2)C1=O,-7.81%,–,–
O=C(Nc1c(F)cc(F)cc1Br)C1CCCO1 (stereo not given),-35.6%,"3.66 µM [falling, full curve]","3.66 µM [falling, full curve]"
COc1ccccc1CCN1CCCC(CN(C)C(=O)c2ccc3nc[nH]c3c2)C1 (stereo not given),40.4%,–,"0.00461 µM [rising, full curve, poor fit]"
COc1ccc2c(c1)C(=O)CCC2c1ccccc1 (stereo not given),18.9%,"6.51 µM [rising, full curve]",–
COc1ccc([N+](=O)[O-])cc1NC(=O)C(C)Sc1ccc(C)cc1 (stereo not given),-30.2%,"0.00517 µM [falling, full curve, poor fit]","0.0326 µM [falling, full curve, poor fit]"
O=c1oc2cc(OCc3nn[nH]n3)ccc2c2c1CCCC2,24.6%,–,–
CS(=O)(=O)N(CC(=O)NCc1ccco1)c1cc(C(F)(F)F)ccc1Cl,8.43%,"0.00461 µM [rising, full curve, poor fit]",–
COc1ccc(CC(=O)Nc2ccc(S(=O)(=O)NCC3CCCO3)cc2)cc1 (stereo not given),–,–,"3.66 µM [rising, single point]"
Cc1ccc(C(=O)Nc2cc3c(oc2=O)CCCC3=O)cc1,-5.17%,"1.3 µM [rising, full curve, poor fit]",–
CN(C(=O)CSc1nnc(-c2ccco2)n1C)C1CCCCC1,-20.5%,–,–
CN(C(=O)CSc1nnc(Cc2cccs2)n1C1CC1)C1CCS(=O)(=O)C1 (stereo not given),–,–,"1.03 µM [falling, single point]"
O=C(CSc1ccc(Br)cc1)Nc1cccc(S(=O)(=O)N2CCOCC2)c1,–,"29.1 µM [falling, partial curve, poor fit]",–
Cc1ccc(/C([O-])=C(/C(=S)Nc2ccc(SC(F)F)cc2)[n+]2ccccc2)cc1[N+](=O)[O-],2.74%,–,–
Cc1ccc(C)c(NC(=O)c2ccc(S(=O)(=O)C(F)F)cc2)c1,-37.8%,"29.1 µM [falling, single point]","29.1 µM [falling, single point]"
CSCc1ccc(C(=O)Nc2cc(C)cc(C)c2)cc1,17.1%,–,"6.51 µM [rising, single point]"
COc1ccc(C(NC(=O)c2ccc(-c3ccccc3)cc2)c2ccccc2)cc1 (stereo not given),-21.6%,"3.26 µM [falling, full curve]",–
Cc1sc2nc(SCC(=O)c3cccs3)n(Cc3ccco3)c(=O)c2c1C,11.9%,"1.64 µM [rising, full curve]",–

SMILES,cell number change,AC50 [1],AC50 [2]
COc1cccc(C2SCC(=O)N2c2ccc(Cl)cc2)c1OC (stereo not given),-8.44%,–,–
Cc1ccccc1Oc1ccccc1N,-56.3%,"14.6 µM [falling, partial curve, poor fit]","23.1 µM [falling, single point]"
COc1ccc(NC(=O)Cn2ncc(Cl)c(Cl)c2=O)cc1S(=O)(=O)N1CCOCC1,-8.45%,"10.3 µM [falling, partial curve]",–
Cc1ccc(S(=O)(=O)NCc2ccc(C(=O)NCCN(Cc3ccccc3)C(C)C)cc2)cc1,-3.03%,"0.82 µM [falling, full curve]",–
CCOC(=O)CNC(=O)C1(c2ccccc2)CCCC1,-33.1%,"7.31 µM [falling, partial curve]","29.1 µM [falling, single point]"
Cn1cc(C(=O)NC2C3CC4CC(C3)CC2C4)cn1 (stereo not given),3.11%,"10.3 µM [falling, partial curve]",–
CC1=NN(c2nc(-c3ccc(C)cc3)cs2)C(=O)C1N=Nc1cccc(C)c1 (stereo not given),-23.2%,"14.6 µM [falling, partial curve]",–
Fc1ccc(Cn2nnnc2C(c2ccc(Cl)cc2)N2CCSCC2)cc1 (stereo not given),87%,–,"16.4 µM [rising, single point]"
Cc1[nH]nc(-c2ccc(O)cc2O)c1Oc1ccccc1,-36.7%,–,"29.1 µM [falling, single point]"
COc1ccc(CNC(=O)c2c([S-])n(-c3ccc(C)cc3)c3cccc[n+]23)cc1,20%,"18.4 µM [rising, single point]",–
N#C/C(=C\c1ccccc1)C(=O)N1CCC(C(N)=O)CC1,2.38%,–,–
O=C(NCc1ccc(F)cc1)c1cnc(Cl)c(Cl)c1,-13.3%,"2.06 µM [falling, partial curve]",–
CCC(=O)Nc1ccc(C(=O)CSc2nc3ccccc3cc2CC)cc1,–,"0.651 µM [rising, single point]",–
COc1ccc(COc2ncnc3ccc(Br)cc23)cc1F,41.3%,–,"2.06 µM [rising, full curve]"
c1ccc(-c2nc(NCc3ccco3)c3oc4ccccc4c3n2)cc1,-5.43%,"29.1 µM [rising, single point]",–
COc1cc(CN2CCN(CCCc3ccccc3)C(CCO)C2)cc(OC)c1O (stereo not given),-2.59%,"29.1 µM [falling, single point]",–
CSc1ccccc1NC(=O)CN1CCN(Cc2ccccc2)CC1,-12.6%,"9.2 µM [falling, partial curve]",–
CCCCNC(=O)/C(=C/c1ccco1)NC(=O)c1ccco1,2.1%,"7.31 µM [rising, partial curve]",–
Oc1cccc(C(=S)N2CCC(Cc3ccccc3)CC2)c1,-45.3%,"13 µM [falling, partial curve]","9.2 µM [falling, partial curve]"
O=C(c1ccc([N+](=O)[O-])o1)N1CCN(c2nc3c(Cl)cccc3s2)CC1,68.4%,–,"0.326 µM [rising, full curve]"
O=C(NC(Cc1ccccc1)C(=O)O)/C(=C\c1ccc(Cl)cc1)NC(=O)c1ccco1 (stereo not given),–,"0.092 µM [falling, full curve, poor fit]",–
